Results: PubChem BioAssay (Tox21)
“And” between values parts separate entries of the source, which are not always exact repeats. Equal values may be shown once. The inconclusive results got no clear call from the source; some entries with a clear call stand among them for comparison. A potency beside an inconclusive call is a rough fit, not a confirmed value. Some structures have more than one record in an assay (separate samples or runs), and their calls can disagree. The source made the active and inactive calls. Unless noted, the call rests on the fitted dose curve. Positions of bridges follow the written chain, without caps; N, C: chain ends. Non-standard residues stand in square brackets, D forms with d. Residues, ends and D or L forms follow the SMILES beside them. hArg = N=C(N)NCCCC[C@H](N)C(=O)O; Mpa = O=C(O)CCS

Chains of the proteins cited; added tags and fusions are not shown. Lines headed by an entry give the natural chain unless they say otherwise; changes in a name come on top.
UniProt P28223, whole entry, looked up: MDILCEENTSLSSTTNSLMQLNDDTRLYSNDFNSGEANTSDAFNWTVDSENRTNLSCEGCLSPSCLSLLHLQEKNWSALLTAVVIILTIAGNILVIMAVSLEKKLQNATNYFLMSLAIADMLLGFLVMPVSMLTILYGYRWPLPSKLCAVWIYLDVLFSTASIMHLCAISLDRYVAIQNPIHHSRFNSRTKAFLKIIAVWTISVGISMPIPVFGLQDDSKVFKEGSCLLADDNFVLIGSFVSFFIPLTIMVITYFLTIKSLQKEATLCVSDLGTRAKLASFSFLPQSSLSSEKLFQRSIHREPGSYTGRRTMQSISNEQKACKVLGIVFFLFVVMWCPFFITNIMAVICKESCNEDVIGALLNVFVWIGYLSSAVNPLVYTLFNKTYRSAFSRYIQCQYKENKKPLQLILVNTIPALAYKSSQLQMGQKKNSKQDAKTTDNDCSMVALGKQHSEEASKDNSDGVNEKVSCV
UniProt P11229: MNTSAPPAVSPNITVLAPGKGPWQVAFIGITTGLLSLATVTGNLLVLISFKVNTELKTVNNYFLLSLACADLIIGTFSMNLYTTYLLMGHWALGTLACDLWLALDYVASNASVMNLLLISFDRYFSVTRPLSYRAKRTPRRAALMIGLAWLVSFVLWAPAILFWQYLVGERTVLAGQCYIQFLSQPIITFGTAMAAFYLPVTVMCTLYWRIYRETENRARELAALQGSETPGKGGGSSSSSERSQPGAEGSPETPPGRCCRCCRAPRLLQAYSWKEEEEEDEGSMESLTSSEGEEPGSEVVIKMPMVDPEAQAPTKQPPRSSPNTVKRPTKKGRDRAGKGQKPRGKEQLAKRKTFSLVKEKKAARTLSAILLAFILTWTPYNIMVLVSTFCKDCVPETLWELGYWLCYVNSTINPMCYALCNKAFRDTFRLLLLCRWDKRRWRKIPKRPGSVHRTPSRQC

Target: 5-hydroxytryptamine receptor 2A (Homo sapiens) (UniProt P28223)
Assay: 5-hydroxytryptamine receptor 2A (HTR2A) small molecule antagonists, cell-based qHTS assay (AID 1963586); further: nearly all actives have a fitted effect of over 45% in size
Conditions: HTR2A-CHO cells, DOI-induced calcium flux, fluorescence; series mostly up to 61.5 µM
Procedure, shortened: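 CHO cells stably expressing human HTR2A were plated for 18 h at 37 C, then loaded with calcium dye for 1 h. Compounds were preincubated 5 min at room temperature before DOI (4 nM solution) was added. Kinetic fluorescence was read for 3 min.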
Potency means the concentration at half of the fitted maximal effect.

Compound | Potency
Nc1ccc(-c2ccc(F)cc2)cc1 | inconclusive: 5.94 µM [inhibitor, single point]
CCOCN(C(=O)CS(=O)(=O)O)c1c(C)cccc1CC | inconclusive: 47.2 µM [inhibitor, single point]
Nc1cccc2c1CN(C1CCC(=O)NC1=O)C2=O (stereo not drawn) | inactive
COc1ccc(C(C)=O)cc1 | inconclusive: 13.7 µM [inhibitor, partial curve, poor fit]
CCCCCCOC(=O)CC | inactive
Cc1cn([C@@H]2O[C@H](CO)[C@@H](O)[C@@H]2F)c(=O)[nH]c1=O | inconclusive: 1.83 µM [inhibitor, full curve, poor fit]
Cc1cccc(Oc2ccccc2)c1 | active: 0.001 µM
Cc1cc(NC(=O)C2=C(O)c3ccccc3S(=O)(=O)N2C)no1 | inconclusive: 20.5 µM [inhibitor, single point]
CCCCCCCC(=O)OCC(COC(=O)CCCCCCC)OC(=O)CCCCCCC | inactive
CCCCCCCCOc1ccccc1C(=O)Nc1ccc(C(=O)OCC[N+](C)(CC)CC)cc1 | inconclusive: 20.5 µM [inhibitor, single point]
C=C(C)C(=O)Nc1ccc(Cl)c(Cl)c1 | inconclusive: 0.0034 µM [inhibitor, full curve, poor fit]
CNC(=O)CN(CCN(CCN(CC(=O)[O-])CC(=O)NC)CC(=O)[O-])CC(=O)[O-].O.[Gd+3] | inconclusive: 2.05 µM [inhibitor, single point]

Target: 5-hydroxytryptamine receptor 2A (Homo sapiens) (UniProt P28223)
Assay: 5-hydroxytryptamine receptor 2A (HTR2A) small molecule agonists, cell-based qHTS assay (AID 1963587); further: nearly all actives have a fitted effect of over 30% in size; on activation: on the % scale 0 is the no-effect control and ±100 the full control effect
Conditions: HTR2A-CHO cells, calcium flux fluorescence, agonist mode; series mostly up to 76.8 µM
Procedure, shortened: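 HTR2A-CHO cells, plated 18 h at 37 C/5% CO2, dye-loaded 1 h at 37 C; compounds in DMSO added by pin tool (agonist mode). Intracellular calcium flux read as kinetic fluorescence on FDSS over 2 min at 1 s intervals.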

Compound | Potency
Nc1ccc(-c2ccc(F)cc2)cc1 | inactive
O=C(O)CCCCCCCCCC(=O)O | inactive
CCOCN(C(=O)CS(=O)(=O)O)c1c(C)cccc1CC | inconclusive: 61.6 µM [activator, partial curve, poor fit]
COc1ccc(C(C)=O)cc1 | inactive
Cc1cn([C@@H]2O[C@H](CO)[C@@H](O)[C@@H]2F)c(=O)[nH]c1=O | inactive
Cc1cccc(Oc2ccccc2)c1 | inactive

Target: Muscarinic acetylcholine receptor M1 (Homo sapiens) (UniProt P11229)
Assay: Cholinergic receptor muscarinic 1 (CHRM1) small molecule antagonists, cell-based qHTS assay (AID 1963588); further: nearly all actives have a fitted effect of over 40% in size
Conditions: CHRM1-CHO antagonist mode, calcium flux fluorescence; series mostly up to 61.5 µM
Procedure, shortened: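 Compounds were tested at 15 concentrations in three independent runs. Dye-loaded CHRM1-CHO cells were exposed 5 min at room temperature before stimulation by acetylcholine added at 50nM. Intracellular calcium was read kinetically on FDSS for 3 min.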

Compound | Potency
CCOCN(C(=O)CS(=O)(=O)O)c1c(C)cccc1CC | inconclusive: 0.0053 µM [inhibitor, full curve, poor fit]
COc1ccc(C(C)=O)cc1 | inconclusive: 4.34 µM [inhibitor, single point]
COCC(=O)O | active: 8.63 µM
CCCCCCCCOc1ccccc1C(=O)Nc1ccc(C(=O)OCC[N+](C)(CC)CC)cc1 | inconclusive: 0.115 µM [inhibitor, full curve]
CNC(=O)CN(CCN(CCN(CC(=O)[O-])CC(=O)NC)CC(=O)[O-])CC(=O)[O-].O.[Gd+3] | inconclusive: 0.0006 µM [inhibitor]

Test system: not listed separately
Assay: cAMP Responsive Elements (CRE) small molecule agonists, cell-based qHTS assay (AID 1963590); on activation: on the % scale 0 is the no-effect control and ±100 the full control effect
Conditions: CRE-bla HEK293T, beta-lactamase FRET ratio, 3 h; activation: at 92.4 µM (top of the series) unless noted
Procedure, shortened: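 Agonist mode: compound added to CRE-bla HEK 293T cells (2,000/well, 18 h after plating) for 3 h at 37 C/5% CO2. Reporter activity detected via FRET beta-lactamase substrate, 2 h room-temperature loading.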

Compound | Potency
CCOc1ccccc1O | inconclusive: 0.0122 µM [falling, full curve, poor fit]
CCOCN(C(=O)CS(=O)(=O)O)c1c(C)cccc1CC | inactive
Cc1cccc(Oc2ccccc2)c1 | inconclusive: 66.8 µM [rising, single point]
CN(C(=O)CCCOc1ccc2[nH]c(=O)ccc2c1)C1CCCCC1 | inconclusive: 11.9 µM [fluorescent, full curve]
Cc1ccc2c(c1)OCC(=O)CO2 | inactive
CCCCCCCCOc1ccccc1C(=O)Nc1ccc(C(=O)OCC[N+](C)(CC)CC)cc1 | inconclusive: 29.8 µM [activator]
C/C(=C\c1ccc(C(=O)O)cc1)c1ccc2c(c1)C(C)(C)CCC2(C)C | inactive
CNC(=O)CN(CCN(CCN(CC(=O)[O-])CC(=O)NC)CC(=O)[O-])CC(=O)[O-].O.[Gd+3] | inactive

Test system: not listed separately
Assay: cAMP Responsive Elements (CRE) small molecule antagonists, cell-based qHTS assay (AID 1963591; active means well fitted inhibition curve with a large enough effect in the signal ratio in the repeat runs, not every such curve was filed as active; inconclusive means weak or mixed curves, or effect the other way; the % refers to the signal ratio; on activity change, negative = inhibition: on the % scale 0 is the no-effect control and ±100 the full control effect)
Conditions: CRE-bla HEK293T, beta-lactamase FRET ratio; activity change, negative = inhibition: at 92.4 µM (top of the series) unless noted
Procedure, shortened: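 Antagonist mode: compounds are added alongside the adenylyl cyclase activator NKH477 (0.25 uM final) to CRE-bla HEK293T cells for 3 h. LiveBLAzer FRET substrate, 2 h at room temperature, reports bla expression.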

Compound | activity change, negative = inhibition | Potency
Nc1ccc(-c2ccc(F)cc2)cc1 | inconclusive: -5.81% | –
CCCCCCOC(=O)CC | – | inactive
COc1ccc(Cl)cc1C(=O)NCCc1ccc(S(=O)(=O)NC(=O)NC2CCCCC2)cc1 | – | inconclusive: 61.1 µM [fluorescent] and inconclusive: 33.5 µM [activator, partial curve, poor fit]
O=C(O)c1ccc(O)cc1 | – | inconclusive: 18 µM [activator, partial curve, poor fit]
COCC(=O)O | inconclusive: -5.44% | –
CCC(C)(O)CCCC(C)C (stereo not drawn) | – | inactive
CN(C(=O)CCCOc1ccc2[nH]c(=O)ccc2c1)C1CCCCC1 | inconclusive: -1.48% [at 42.4 µM] | –
NC(=O)[C@@H]1CSSCCC(=O)N[C@@H](CCCCN=C(N)N)C(=O)NCC(=O)N[C@@H](CC(=O)O)C(=O)N[C@@H](Cc2c[nH]c3ccccc23)C(=O)N2CCC[C@H]2C(=O)N1 ([Mpa][hArg]GDWPC-NH2; disulfide 1-7) | – | inactive
Cc1ccc2c(c1)OCC(=O)CO2 | – | inactive
CCCCCCCCOc1ccccc1C(=O)Nc1ccc(C(=O)OCC[N+](C)(CC)CC)cc1 | – | inconclusive: 15 µM [activator, partial curve, poor fit]
CCO[Si](CC(C)C)(OCC)OCC | – | inactive
C/C(=C\c1ccc(C(=O)O)cc1)c1ccc2c(c1)C(C)(C)CCC2(C)C | – | inactive

Rewritten tab-delimited: entries from further up
Compound	activity change, negative = inhibition	Potency
COCC(=O)O	inconclusive: -5.44%	–
CCC(C)(O)CCCC(C)C (stereo not drawn)	–	inactive
CN(C(=O)CCCOc1ccc2[nH]c(=O)ccc2c1)C1CCCCC1	inconclusive: -1.48% [at 42.4 µM]	–
NC(=O)[C@@H]1CSSCCC(=O)N[C@@H](CCCCN=C(N)N)C(=O)NCC(=O)N[C@@H](CC(=O)O)C(=O)N[C@@H](Cc2c[nH]c3ccccc23)C(=O)N2CCC[C@H]2C(=O)N1 ([Mpa][hArg]GDWPC-NH2; disulfide 1-7)	–	inactive
Cc1ccc2c(c1)OCC(=O)CO2	–	inactive
CCCCCCCCOc1ccccc1C(=O)Nc1ccc(C(=O)OCC[N+](C)(CC)CC)cc1	–	inconclusive: 15 µM [activator, partial curve, poor fit]
